Reference: PubChem BioAssay AID248 (DTP/NCI, 2004)
The list shows only some results of the screen, not a fair sample: it gathers tests that were run many times, whatever their T/C, doses with no T/C, and many T/C values between a quarter and a half above the control. Further doses and runs are listed elsewhere. T/C is the treated group as % of the vehicle group. Some entries give survivors of the animals treated and no T/C: the source files T/C as zero there, which appears to mark a toxic dose or a test without result, not a measured value. Some doses without a T/C left all or most animals alive at the check, yet need not have been tolerated: the source hardly ever lists a survival T/C far under the control, and the zero likely stands for such cases as well. Survivors were counted at the toxicity check, usually on the fifth day, unless a day is given; later deaths do not show. Schedules are NCI's codes, taken here to give the interval after Q, in days (D) or hours (H), and the number of doses after X. Some schedule codes hold Z or #, which are not explained here. Where survival is the endpoint, the PubChem record calls one and a half times the control and up active, and a quarter to a half above the control has no call in these data; cut-offs in other NCI protocols can differ. Some entries hold several experiments; their values stand side by side, smallest first.

Test system: L1210 leukemia ip in BDF1 mice, survival T/C
Test: NCI In Vivo Anticancer Drug Screen. Data for tumor model L1210 Leukemia (intraperitoneal) in B6D2F1 (BDF1) mice
Details: T/C endpoint: mean survival time, higher T/C = longer survival
[1] = dose: 100.0 mg/kg/injection, schedule: Q04DX002 (ip), vehicle: Klucel (hydroxypropylcellulose) (HPC)
[2] = dose: 400.0 mg/kg/injection, schedule: Q01DX001 (ip), vehicle: Klucel (hydroxypropylcellulose) (HPC)
[3] = dose: 400.0 mg/kg/injection, schedule: Q01DX009 (ip), vehicle: Klucel (hydroxypropylcellulose) (HPC)
[4] = dose: 400.0 mg/kg/injection, schedule: Q01DX009 (ip), vehicle: saline
[5] = dose: 400.0 mg/kg/injection, schedule: Q04DX003 (ip), vehicle: saline
[6] = dose: 150.0 mg/kg/injection, schedule: Q01DX001 (ip), vehicle: saline
[7] = dose: 300.0 mg/kg/injection, schedule: Q01DX001 (ip), vehicle: saline
[8] = dose: 200.0 mg/kg/injection, schedule: Q01DX009 (ip), vehicle: Klucel (hydroxypropylcellulose) (HPC)
[9] = dose: 75.0 mg/kg/injection, schedule: Q01DX001 (ip), vehicle: other
[10] = dose: 150.0 mg/kg/injection, schedule: Q01DX001 (ip), vehicle: other
[11] = dose: 300.0 mg/kg/injection, schedule: Q01DX001 (ip), vehicle: other
[12] = dose: 400.0 mg/kg/injection, schedule: Q01DX009 (ip), vehicle: saline with Tween-80
[13] = dose: 100.0 mg/kg/injection, schedule: Q04DX003 (ip), vehicle: saline
[14] = dose: 150.0 mg/kg/injection, schedule: Q04DX003 (ip), vehicle: saline

Q: `O=C(O)CO/N=C/c1ccccc1Cl` was tested. Which survivor count [1] did it give?
A: 3 of 3

Q: With `CN=C(NO)c1ccccc1` as the molecule, how does the survivor count [2] read?
A: 2 of 6

Q: For `COc1cccc(-c2nc3ccccc3s2)c1OC`, which survivor count (dose: 200.0 mg/kg/injection, schedule: Q04DX003 (ip), vehicle: DMSO) is on record?
A: 0 of 3

Q: And the survivor count (dose: 400.0 mg/kg/injection, schedule: Q04DX003 (ip), vehicle: DMSO)?
A: 0 of 3

Q: Which survivor count [3] does the source give for `C=CCOCC(O)CN(CC(C)C)CC(C)C` (centres undefined) here?
A: 1 of 6

Q: What does the source list for `O=C(C[n+]1ccccc1)N/N=C/c1cccc([N+](=O)[O-])c1`?
A: survivor count (dose: 100.0 mg/kg/injection, schedule: Q01DX009 (ip), vehicle: saline with Tween-80): 3 of 3; survivor count (dose: 200.0 mg/kg/injection, schedule: Q01DX009 (ip), vehicle: saline with Tween-80): 0 of 3

Q: Which survivor count [2] does the source give for `CCCC1=Cc2cc3c(cc2C1N(C)C)OCO3` (centres undefined) here?
A: 2 of 3

Q: Which results are given for `Cc1cc(O)c(O)c(C(C)(C)CC(C)(C)C)c1`?
A: survivor count (dose: 100.0 mg/kg/injection, schedule: Q01DX009 (ip), vehicle: saline + alcohol): 3 of 6; survivor count (dose: 200.0 mg/kg/injection, schedule: Q01DX009 (ip), vehicle: saline + alcohol): 0 of 6; survivor count (dose: 400.0 mg/kg/injection, schedule: Q01DX009 (ip), vehicle: saline + alcohol): 0 of 6

Q: Which survivor count [4] does the source give for `CCC(N)Cc1ccc(OC)c(OC)c1` (centres undefined) here?
A: 0 of 6

Q: What about the survivor count [5] of the same molecule?
A: 1 of 6

Q: How did the survivor count [6] turn out when `O=[As](O)(c1cccc(Cl)c1)c1cccc(Cl)c1` was run?
A: 2 of 6

Q: What about the survivor count [7] of the same molecule?
A: 0 of 6

Q: `CC1CN1P1(N2CC2C)=NP(N2CC2C)(N2CC2C)=NP(N2CC2C)(N2CC2C)=N1` (centres undefined) was tested. Which T/C (dose: 100.0 mg/kg/injection, schedule: Q01DX001 (ip), vehicle: saline) did it give?
A: 129 % of control

Q: And the T/C (dose: 115.0 mg/kg/injection, schedule: Q04DX003 (ip), vehicle: acetone)?
A: 130 % of control

Q: What about the survivor count (dose: 200.0 mg/kg/injection, schedule: Q01DX009 (ip), vehicle: saline) of the same molecule?
A: 0 of 6

Q: What about the survivor count (dose: 400.0 mg/kg/injection, schedule: Q01DX001 (ip), vehicle: saline) of the same molecule?
A: 0 of 6

Q: `C/C=C/CC1(CC)C(=O)NC(=O)NC1=O` was tested. Which survivor count [7] did it give?
A: 0 of 6

Q: What does the source list for `COc1cc(OC(=O)Nc2ccc([N+](=O)[O-])cc2OC)ccc1C=O`?
A: survivor count [8]: 6 of 6; survivor count [3]: 4 of 6

Q: `COC1=C2C=[N+](C)C3C(=C2C=CC1OC)Cc1cc2c(cc13)OCO2` (centres undefined) was tested. Which survivor count (dose: 400.0 mg/kg/injection, schedule: Q01DX001 (ip), vehicle: carboxymethylcellulose (CMC)) did it give?
A: 2 of 4

Q: For `Nc1n[n+](=O)c2ccccc2n1O`, which survivor count (dose: 9.38 mg/kg/injection, schedule: Q01DX001 (ip), vehicle: other) is on record?
A: 0 of 6

Q: What about the survivor count (dose: 18.75 mg/kg/injection, schedule: Q01DX001 (ip), vehicle: other) of the same molecule?
A: 0 of 6

Q: What about the survivor count (dose: 37.5 mg/kg/injection, schedule: Q01DX001 (ip), vehicle: other) of the same molecule?
A: 0 of 6

Q: And the survivor count [9]?
A: 1 of 6

Q: What about the survivor count [10] of the same molecule?
A: 0 of 6

Q: What about the survivor count [11] of the same molecule?
A: 0 of 6

Q: How did the survivor count [12] turn out when `O=C(O)c1ccc(NC(=O)c2ccc3ccccc3c2O)cc1` was run?
A: 0 of 6

Q: With `CCCNC(=NC)c1ccc(NC(=O)c2ccc(C(=O)Nc3ccc(C(=NC)NCCC)cc3)cc2)cc1` as the molecule, how does the T/C (dose: 2.4 mg/kg/injection, schedule: Q01DX Z (ip), vehicle: saline) read?
A: 127 % of control

Q: What about the T/C (dose: 5.5 mg/kg/injection, schedule: Q01DX Z (ip), vehicle: saline) of the same molecule?
A: 125 % of control

Q: And the T/C (dose: 12.5 mg/kg/injection, schedule: Q01DX Z (ip), vehicle: saline)?
A: 130 and 148 % of control

Q: And the survivor count (dose: 18.75 mg/kg/injection, schedule: Q01DX Z (ip), vehicle: saline)?
A: 0 of 6

Q: What about the survivor count (dose: 125.0 mg/kg/injection, schedule: Q01DX010 (oral), vehicle: saline) of the same molecule?
A: 3 of 6

Q: Which survivor count (dose: 25.0 mg/kg/injection, schedule: Q01DX009 (ip), vehicle: other) does the source give for `Clc1nc2nc3n(c2nc1Cl)CCC3(Br)Br` here?
A: 5 of 6

Q: What about the survivor count (dose: 50.0 mg/kg/injection, schedule: Q01DX009 (ip), vehicle: other) of the same molecule?
A: 6 of 6

Q: What about the survivor count (dose: 100.0 mg/kg/injection, schedule: Q01DX009 (ip), vehicle: other) of the same molecule?
A: 4 of 6

Q: What about the survivor count (dose: 200.0 mg/kg/injection, schedule: Q01DX009 (ip), vehicle: other) of the same molecule?
A: 6 of 6

Q: And the survivor count (dose: 400.0 mg/kg/injection, schedule: Q01DX009 (ip), vehicle: other)?
A: 2 of 6

Q: Which results are given for `CCP(CC)c1cccc(OC(=O)NC)c1`?
A: survivor count (dose: 40.0 mg/kg/injection, schedule: Q01DX001 (ip), vehicle: saline): 0 of 6; survivor count (dose: 75.0 mg/kg/injection, schedule: Q01DX001 (ip), vehicle: saline): 0 of 6; survivor count (dose: 80.0 mg/kg/injection, schedule: Q01DX001 (ip), vehicle: saline): 0 of 6; survivor count [6]: 0 of 6; survivor count [7]: 0 of 6

Q: What does the source list for `NC(=O)c1ccccc1OC(=O)Nc1cc([N+](=O)[O-])ccc1F`?
A: survivor count [8]: 6 of 6; survivor count [3]: 6 of 6

Q: `O=C1NC(=O)C(O)(O)C(=O)N1` was tested. Which survivor count [4] did it give?
A: 0 of 6

Q: For `CN(C)c1ccc(C(N)=O)cn1`, which survivor count (dose: 33.0 mg/kg/injection, schedule: Q01DX009 (ip), vehicle: saline with Tween-80) is on record?
A: 5 of 6

Q: What about the survivor count (dose: 66.0 mg/kg/injection, schedule: Q01DX009 (ip), vehicle: saline with Tween-80) of the same molecule?
A: 6 of 6

Q: What about the T/C (dose: 66.0 mg/kg/injection, schedule: Q04DX003 (ip), vehicle: saline) of the same molecule?
A: 127 % of control

Q: And the survivor count [13]?
A: 6 of 6

Q: And the T/C [14]?
A: 125 % of control

Q: And the survivor count [14]?
A: 6 of 6

Q: What about the survivor count [5] of the same molecule?
A: 6 of 6

Q: How did the survivor count [5] turn out when `CN(C)Cc1cc(C(C)(C)C)ccc1O` was run?
A: 2 of 6

Q: What does the source list for `NC(CSS(=O)(=O)O)=NCCSc1ccccc1`?
A: survivor count [1]: 0 of 3; survivor count (dose: 200.0 mg/kg/injection, schedule: Q04DX002 (ip), vehicle: Klucel (hydroxypropylcellulose) (HPC)): 0 of 3; survivor count (dose: 400.0 mg/kg/injection, schedule: Q04DX002 (ip), vehicle: Klucel (hydroxypropylcellulose) (HPC)): 0 of 3

Q: `CC(C)=NC(=O)NO.[Cl][Mn][Cl]` was tested. Which survivor count [7] did it give?
A: 1 of 6

Q: And the survivor count (dose: 300.0 mg/kg/injection, schedule: Q01DX009 (ip), vehicle: saline)?
A: 0 of 6

Q: What does the source list for `NNC(=O)c1ccccc1Cl`?
A: survivor count [9]: 0 of 6; survivor count [10]: 0 of 6; survivor count [11]: 0 of 6

Q: With `O=C(O)c1c(F)cccc1F` as the molecule, how does the survivor count (dose: 200.0 mg/kg/injection, schedule: Q04DX003 (ip), vehicle: Klucel (hydroxypropylcellulose) (HPC)) read?
A: 1 of 3

Q: For `Cc1ccc(NC(=O)CCc2ccc(N3C(N)=NC(N)=NC3(C)C)cc2)cc1S(=O)(=O)F`, which survivor count [2] is on record?
A: 3 of 6

Q: How did the survivor count [13] turn out when `Cc1cccc[n+]1CCC(N)=O` was run?
A: 1 of 6

Q: What about the survivor count (dose: 200.0 mg/kg/injection, schedule: Q04DX003 (ip), vehicle: saline) of the same molecule?
A: 0 of 6

Q: What about the survivor count [5] of the same molecule?
A: 0 of 6

Q: How did the survivor count [12] turn out when `O=C1c2cccc3c(Br)ccc(c23)C(=O)N1C1CCCCCCCCCCC1` was run?
A: 3 of 6

Q: With `COc1c(C)c2c(c(O)c1C/C=C(\C)CCC(=O)O)C(=O)OC2` as the molecule, how does the T/C (dose: 119.0 mg/kg/injection, schedule: Q01DX009 (ip), vehicle: saline) read?
A: 128 % of control

Q: And the T/C (dose: 178.0 mg/kg/injection, schedule: Q01DX009 (ip), vehicle: saline)?
A: 129 % of control

Q: What about the T/C (dose: 267.0 mg/kg/injection, schedule: Q01DX009 (ip), vehicle: saline) of the same molecule?
A: 129 % of control

Q: And the T/C [4]?
A: 129 % of control
